Not every detail of the peptide structures is certain; ends, links or a residue may be inferred. Non-standard residues stand in square brackets, D forms with d. Residues, ends and D or L forms follow the SMILES beside them. *: point of attachment. Acetyl(2-naphthyl) = O=C(Cc1ccc2ccccc2c1)*; pY = N[C@@H](Cc1ccc(OP(=O)(O)O)cc1)C(=O)O; NBD = O=[N+]([O-])c1ccc(*)c2nonc12
What was measured:
[1] = tested on: MDA-MB231 breast cancer cells; assay: EV generation from peptide-treated cells, number and size of EVs quantified by Nanoparticle Tracking Analysis (NTA); assay type: cell-based
[2] = tested on: CD9, CD44, Src, and β-actin; assay: Proteins released from cells through EVs: silver staining and Western blotting of EV markers; assay type: cell-based

What does the source list for `O=C(Cc1ccc2ccccc2c1)N[C@@H](Cc1ccccc1)C(=O)N[C@@H](Cc1ccccc1)C(=O)N[C@@H](CCCCNc1ccc([N+](=O)[O-])c2nonc12)C(=O)N[C@@H](Cc1ccc(OP(=O)(O)O)cc1)C(=O)O` [NapFFK(NBD)Yp] ({Acetyl(2-naphthyl)}-FFK(NBD)[pY]-OH)?
EV generation ([1]; 5 μM peptide, 60 min incubation, FIG. 3A): significant increase; number of EVs released from the cells ([1]; as the concentration of peptides in parental cells is increased (0, 5, 50, 500 μM), NTA, FIG. 3A): increased; increase of EV generation ([1]; less purified peptide (purity 75.6%), at <50 μM, MB231 cells, FIG. 6A): 3 fold; increase of EV generation with respect to the control ([1]; peptide purified to 99.9% purity, peptide concentration 25 μM, MB231 cells, control 0 μM peptide, FIG. 6B): 6 fold; size of EVs ([1]; regardless of the polypeptide concentration in parental cells, NTA, FIG. 3B-3E): constant; EV markers CD9, CD44, Src, and β-actin ([2]; Western blotting, higher peptide concentrations, FIG. 4B): significant increase; total amount of proteins released from cells through EVs carriers ([2]; silver staining, with the peptide concentration, FIG. 4A): increased consistently

Reference: US12264352B2, “Method for enhancing extracellular vesicle production” (Research Foundation of the City University of New York, priority 2016, dated 2025)
